The record followed here is publication PMC11162793.

By UniProt entry, the sequences of proteins in these tests, tags left out.
UniProt Q06609: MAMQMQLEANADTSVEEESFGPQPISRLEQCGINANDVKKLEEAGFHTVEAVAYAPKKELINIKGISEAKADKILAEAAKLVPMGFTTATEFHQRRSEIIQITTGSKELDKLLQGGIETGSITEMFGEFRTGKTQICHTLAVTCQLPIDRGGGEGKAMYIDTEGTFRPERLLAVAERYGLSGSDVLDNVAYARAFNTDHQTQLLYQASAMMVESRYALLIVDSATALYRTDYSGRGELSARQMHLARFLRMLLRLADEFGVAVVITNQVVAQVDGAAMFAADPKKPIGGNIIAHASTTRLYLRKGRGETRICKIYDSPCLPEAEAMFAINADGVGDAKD

These are yes or no findings as the source states them, for the method shown. Binding seen in cells or lysates may run through a third protein. Some entries that bind do so weakly or less than the wild type. Where a sequence is shown, tags or fusion partners need not be part of it.

The assay addresses T1, Myc-FIGNL1 (human) (UniProt Q6PIW4).
T1 sequence: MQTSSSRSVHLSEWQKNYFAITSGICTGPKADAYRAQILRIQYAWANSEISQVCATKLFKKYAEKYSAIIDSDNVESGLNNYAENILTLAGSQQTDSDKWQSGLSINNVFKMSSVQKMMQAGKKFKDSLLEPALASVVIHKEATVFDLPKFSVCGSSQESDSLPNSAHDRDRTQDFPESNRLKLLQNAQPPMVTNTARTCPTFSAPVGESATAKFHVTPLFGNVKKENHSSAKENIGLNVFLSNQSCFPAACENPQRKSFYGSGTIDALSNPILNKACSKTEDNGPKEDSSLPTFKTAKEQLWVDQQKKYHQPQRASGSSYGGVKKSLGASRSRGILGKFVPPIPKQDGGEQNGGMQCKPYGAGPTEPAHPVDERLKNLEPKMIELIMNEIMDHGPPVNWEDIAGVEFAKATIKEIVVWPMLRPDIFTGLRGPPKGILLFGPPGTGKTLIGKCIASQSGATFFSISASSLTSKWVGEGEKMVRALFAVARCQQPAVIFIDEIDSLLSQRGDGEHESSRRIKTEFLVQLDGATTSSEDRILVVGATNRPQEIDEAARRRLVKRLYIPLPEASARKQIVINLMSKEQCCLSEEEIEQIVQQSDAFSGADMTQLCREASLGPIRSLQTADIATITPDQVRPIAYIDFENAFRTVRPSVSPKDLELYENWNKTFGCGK
Nature of the assay: co-IP; HA-RAD51 and Myc-FIGNL1 variants co-expressed in 293T cells; cells lysed in benzonase buffer, NaCl raised to 500 mM, extract diluted 1:3 with no-salt IP buffer; anti-Myc affinity gel 90 min at 4°C; washed in IP buffer (150 mM NaCl, 0.25% NP-40); Western blot.

Turning to HA-RAD51 (from UniProt Q06609 1-339), the binding result was “binds”.
